Experiment [1] deals with IRE1-BirA* fusion protein (IRE1α with the biotin ligase BirA* and a Flag tag) (human) (UniProt O75460). In words: proximity labelling.
Experiment [2] has the same target. As to the kind of experiment: proximity labelling. This is another data set of the same source.

Sequences of proteins named here, by UniProt entry; tags and fusion partners are left off. Residues count along the entry.
UniProt O75460, residues 19-977: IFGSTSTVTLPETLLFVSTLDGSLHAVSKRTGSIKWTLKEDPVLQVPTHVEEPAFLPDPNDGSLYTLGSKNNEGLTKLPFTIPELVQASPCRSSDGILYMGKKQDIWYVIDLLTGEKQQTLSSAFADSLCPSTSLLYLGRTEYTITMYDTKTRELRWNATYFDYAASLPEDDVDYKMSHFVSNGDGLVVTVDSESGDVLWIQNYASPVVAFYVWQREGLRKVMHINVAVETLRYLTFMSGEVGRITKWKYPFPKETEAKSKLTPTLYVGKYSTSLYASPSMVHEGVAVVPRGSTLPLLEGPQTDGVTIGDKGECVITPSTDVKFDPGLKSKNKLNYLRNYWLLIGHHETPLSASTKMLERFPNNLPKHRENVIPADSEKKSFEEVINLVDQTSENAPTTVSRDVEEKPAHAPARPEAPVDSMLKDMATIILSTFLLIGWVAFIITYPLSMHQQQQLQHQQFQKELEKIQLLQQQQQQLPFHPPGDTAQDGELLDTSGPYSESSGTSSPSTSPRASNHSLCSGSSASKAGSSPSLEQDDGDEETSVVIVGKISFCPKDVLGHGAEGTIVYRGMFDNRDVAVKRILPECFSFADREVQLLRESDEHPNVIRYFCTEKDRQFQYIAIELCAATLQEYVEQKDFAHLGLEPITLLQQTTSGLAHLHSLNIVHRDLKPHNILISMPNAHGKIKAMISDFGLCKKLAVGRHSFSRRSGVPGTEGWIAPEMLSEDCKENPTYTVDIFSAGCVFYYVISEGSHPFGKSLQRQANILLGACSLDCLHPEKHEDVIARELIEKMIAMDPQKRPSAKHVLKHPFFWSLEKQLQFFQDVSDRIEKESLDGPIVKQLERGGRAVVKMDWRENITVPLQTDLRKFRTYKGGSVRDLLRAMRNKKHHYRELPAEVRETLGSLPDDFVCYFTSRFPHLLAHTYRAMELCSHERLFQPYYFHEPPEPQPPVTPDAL
UniProt P53618: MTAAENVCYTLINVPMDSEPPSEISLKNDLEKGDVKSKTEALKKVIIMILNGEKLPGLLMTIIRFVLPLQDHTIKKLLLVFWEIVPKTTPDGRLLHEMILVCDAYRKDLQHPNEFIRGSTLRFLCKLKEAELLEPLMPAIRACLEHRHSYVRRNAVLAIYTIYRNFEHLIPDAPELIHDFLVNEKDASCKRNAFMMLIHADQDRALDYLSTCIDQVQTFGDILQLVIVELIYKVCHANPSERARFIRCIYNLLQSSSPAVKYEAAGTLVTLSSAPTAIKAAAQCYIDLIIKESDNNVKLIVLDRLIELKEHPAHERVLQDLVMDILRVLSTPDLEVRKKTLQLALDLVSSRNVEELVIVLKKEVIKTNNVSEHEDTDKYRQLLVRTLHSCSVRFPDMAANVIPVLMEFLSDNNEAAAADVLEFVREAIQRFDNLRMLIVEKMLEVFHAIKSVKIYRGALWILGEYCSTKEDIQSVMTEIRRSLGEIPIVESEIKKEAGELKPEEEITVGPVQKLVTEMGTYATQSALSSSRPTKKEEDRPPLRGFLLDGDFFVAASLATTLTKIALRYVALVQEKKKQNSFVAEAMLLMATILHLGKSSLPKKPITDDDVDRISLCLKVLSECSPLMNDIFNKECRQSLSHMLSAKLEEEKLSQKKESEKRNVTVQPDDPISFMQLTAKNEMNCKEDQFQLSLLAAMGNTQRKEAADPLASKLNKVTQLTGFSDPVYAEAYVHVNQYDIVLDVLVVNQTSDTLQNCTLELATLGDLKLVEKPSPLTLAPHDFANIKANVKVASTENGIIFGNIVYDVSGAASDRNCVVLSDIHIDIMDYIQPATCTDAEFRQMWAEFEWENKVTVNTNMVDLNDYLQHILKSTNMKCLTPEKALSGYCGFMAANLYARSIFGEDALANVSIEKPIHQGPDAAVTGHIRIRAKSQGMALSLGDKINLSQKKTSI
UniProt Q13283: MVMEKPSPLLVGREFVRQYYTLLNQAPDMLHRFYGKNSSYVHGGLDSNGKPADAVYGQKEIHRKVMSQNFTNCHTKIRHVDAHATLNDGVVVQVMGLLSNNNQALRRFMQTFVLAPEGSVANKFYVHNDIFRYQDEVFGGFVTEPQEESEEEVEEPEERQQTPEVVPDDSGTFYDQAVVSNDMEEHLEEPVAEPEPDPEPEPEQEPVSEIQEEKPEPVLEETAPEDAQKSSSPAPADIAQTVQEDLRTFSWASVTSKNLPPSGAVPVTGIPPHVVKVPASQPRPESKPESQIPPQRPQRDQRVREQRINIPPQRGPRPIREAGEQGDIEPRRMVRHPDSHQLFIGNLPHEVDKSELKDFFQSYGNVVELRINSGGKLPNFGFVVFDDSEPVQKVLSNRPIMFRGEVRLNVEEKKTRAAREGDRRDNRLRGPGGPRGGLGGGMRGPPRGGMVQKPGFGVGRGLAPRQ
UniProt P14625, residues 22-803: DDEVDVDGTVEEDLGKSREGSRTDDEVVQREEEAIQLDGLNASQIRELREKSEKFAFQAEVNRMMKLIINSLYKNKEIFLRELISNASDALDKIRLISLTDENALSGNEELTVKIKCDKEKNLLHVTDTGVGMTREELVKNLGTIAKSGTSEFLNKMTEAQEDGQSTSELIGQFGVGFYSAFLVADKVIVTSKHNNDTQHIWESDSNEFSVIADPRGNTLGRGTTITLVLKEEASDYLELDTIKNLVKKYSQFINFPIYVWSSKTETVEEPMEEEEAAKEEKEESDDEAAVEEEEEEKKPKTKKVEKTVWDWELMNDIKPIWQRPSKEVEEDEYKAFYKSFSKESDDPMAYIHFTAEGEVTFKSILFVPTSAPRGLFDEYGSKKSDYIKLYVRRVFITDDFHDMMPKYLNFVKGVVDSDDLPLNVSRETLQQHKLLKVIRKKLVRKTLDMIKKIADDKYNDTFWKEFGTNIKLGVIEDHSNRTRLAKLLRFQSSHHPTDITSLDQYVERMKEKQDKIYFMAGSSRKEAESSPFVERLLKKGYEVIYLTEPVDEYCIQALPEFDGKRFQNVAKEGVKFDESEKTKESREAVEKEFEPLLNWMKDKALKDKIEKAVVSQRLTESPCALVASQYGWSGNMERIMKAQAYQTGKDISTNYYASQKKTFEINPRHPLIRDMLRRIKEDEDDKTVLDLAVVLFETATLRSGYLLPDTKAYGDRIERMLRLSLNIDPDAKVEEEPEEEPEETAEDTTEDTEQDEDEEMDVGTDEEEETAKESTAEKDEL
UniProt P11142: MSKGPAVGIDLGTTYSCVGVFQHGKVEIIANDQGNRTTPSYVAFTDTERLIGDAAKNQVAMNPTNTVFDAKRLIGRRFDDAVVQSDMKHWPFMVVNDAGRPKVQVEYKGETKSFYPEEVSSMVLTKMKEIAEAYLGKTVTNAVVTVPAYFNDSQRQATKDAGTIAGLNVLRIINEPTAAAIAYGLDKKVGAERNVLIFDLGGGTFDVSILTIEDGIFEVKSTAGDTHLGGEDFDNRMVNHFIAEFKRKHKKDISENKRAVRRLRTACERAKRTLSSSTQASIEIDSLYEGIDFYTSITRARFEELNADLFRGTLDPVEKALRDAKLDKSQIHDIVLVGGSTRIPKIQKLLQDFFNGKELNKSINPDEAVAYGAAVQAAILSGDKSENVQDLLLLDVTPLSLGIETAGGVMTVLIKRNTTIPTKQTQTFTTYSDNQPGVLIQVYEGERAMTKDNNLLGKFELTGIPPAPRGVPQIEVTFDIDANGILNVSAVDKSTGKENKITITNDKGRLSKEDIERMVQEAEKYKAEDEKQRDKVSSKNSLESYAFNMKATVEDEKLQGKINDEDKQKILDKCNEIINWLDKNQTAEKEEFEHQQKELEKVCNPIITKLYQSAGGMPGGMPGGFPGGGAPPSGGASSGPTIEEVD
UniProt Q13586, residues 23-685: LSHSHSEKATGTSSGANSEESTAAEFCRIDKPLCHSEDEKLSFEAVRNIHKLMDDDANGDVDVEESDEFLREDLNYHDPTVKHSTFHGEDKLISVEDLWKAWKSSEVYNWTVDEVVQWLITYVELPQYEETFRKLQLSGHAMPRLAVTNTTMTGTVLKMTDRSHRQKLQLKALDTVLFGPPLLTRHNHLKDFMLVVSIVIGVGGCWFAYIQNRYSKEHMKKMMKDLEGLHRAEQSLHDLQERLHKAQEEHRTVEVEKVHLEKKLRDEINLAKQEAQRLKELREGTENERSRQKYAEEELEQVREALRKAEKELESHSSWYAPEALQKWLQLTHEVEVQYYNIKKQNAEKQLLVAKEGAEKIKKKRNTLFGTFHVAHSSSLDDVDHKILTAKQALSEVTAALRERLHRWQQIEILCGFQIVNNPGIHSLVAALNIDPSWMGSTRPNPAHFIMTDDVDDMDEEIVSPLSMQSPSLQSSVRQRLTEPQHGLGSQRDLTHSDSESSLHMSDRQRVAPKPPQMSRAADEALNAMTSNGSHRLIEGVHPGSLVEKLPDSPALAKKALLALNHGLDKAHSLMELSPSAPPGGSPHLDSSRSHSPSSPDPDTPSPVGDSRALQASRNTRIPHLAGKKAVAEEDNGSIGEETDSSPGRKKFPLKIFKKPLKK

Like-named read-outs stand apart in the source and are kept apart here. These are yes or no findings as the source states them, for the method shown. Binding seen in cells or lysates may run through a third protein. A yes stands for co-enrichment or nearness to the bait. Other partners may have been found.

Consider COPB1 (from UniProt P53618 1-953), for which the binding entry in experiment [1] is on record as “binds”. Take FLNA (from UniProt P21333 1-2647): the binding entry in experiment [1] is “binds”. Still for that read-out and setting: as for G3BP1 (from UniProt Q13283 1-466), the entry is “binds”.

Take HSP90B1 (from UniProt P14625 22-803): the binding entry in experiment [1] is “binds”. As to HSPA8 (from UniProt P11142 1-646), the binding result in experiment [1] was “binds”.

With STIM1 (from UniProt Q13586 23-685), the binding result in experiment [1] was “binds”. The same measure, in the same setting: for VCP (from UniProt P55072 1-806) the value was “binds”.

B1: UBXN4 (protein, UniProt Q92575 1-508)
chain: MLWFQGAIPAAIATAKRSGAVFVVFVAGDDEQSTQMAASWEDDKVTEASSNSFVAIKIDTKSEACLQFSQIYPVVCVPSSFFIGDSGIPLEVIAGSVSADELVTRIHKVRQMHLLKSETSVANGSQSESSVSTPSASFEPNNTCENSQSRNAELCEIPPTSDTKSDTATGGESAGHATSSQEPSGCSDQRPAEDLNIRVERLTKKLEERREEKRKEEEQREIKKEIERRKTGKEMLDYKRKQEEELTKRMLEERNREKAEDRAARERIKQQIALDRAERAARFAKTKEEVEAAKAAALLAKQAEMEVKRESYARERSTVARIQFRLPDGSSFTNQFPSDAPLEEARQFAAQTVGNTYGNFSLATMFPRREFTKEDYKKKLLDLELAPSASVVLLPAGRPTASIVHSSSGDIWTLLGTVLYPFLAIWRLISNFLFSNPPPTQTSVRVTSSEPPNPASSSKSEKREPVRKRVLEKRGDDFKKEGKIYRLRTQDDGEDENNTWNGNSTQQM
Consider B1, for which the binding result in experiment [2] is recorded as “binds”.

B2: PTPN1 (enzyme, UniProt P18031 1-435)
chain: MEMEKEFEQIDKSGSWAAIYQDIRHEASDFPCRVAKLPKNKNRNRYRDVSPFDHSRIKLHQEDNDYINASLIKMEEAQRSYILTQGPLPNTCGHFWEMVWEQKSRGVVMLNRVMEKGSLKCAQYWPQKEEKEMIFEDTNLKLTLISEDIKSYYTVRQLELENLTTQETREILHFHYTTWPDFGVPESPASFLNFLFKVRESGSLSPEHGPVVVHCSAGIGRSGTFCLADTCLLLMDKRKDPSSVDIKKVLLEMRKFRMGLIQTADQLRFSYLAVIEGAKFIMGDSSVQDQWKELSHEDLEPPPEHIPPPPRPPKRILEPHNGKCREFFPNHQWVKEETQEDKDCPIKEEKGSPLNAAPYGIESMSQDTEVRSRVVGGSLRGAQAASPAKGEPSLPEKDEDHALSYWKPFLVNMCVATVLTAGAYLCYRFLFNSNT
As to B2, in experiment [2], the binding entry is reported as “binds”.

B3: MTDH (protein, UniProt Q86UE4 1-582)
chain: MAARSWQDELAQQAEEGSARLREMLSVGLGFLRTELGLDLGLEPKRYPGWVILVGTGALGLLLLFLLGYGWAAACAGARKKRRSPPRKREEAAAVPAAAPDDLALLKNLRSEEQKKKNRKKLSEKPKPNGRTVEVAEGEAVRTPQSVTAKQPPEIDKKNEKSKKNKKKSKSDAKAVQNSSRHDGKEVDEGAWETKISHREKRQQRKRDKVLTDSGSLDSTIPGIENTITVTTEQLTTASFPVGSKKNKGDSHLNVQVSNFKSGKGDSTLQVSSGLNENLTVNGGGWNEKSVKLSSQISAGEEKWNSVSPASAGKRKTEPSAWSQDTGDANTNGKDWGRSWSDRSIFSGIGSTAEPVSQSTTSDYQWDVSRNQPYIDDEWSGLNGLSSADPNSDWNAPAEEWGNWVDEERASLLKSQEPIPDDQKVSDDDKEKGEGALPTGKSKKKKKKKKKQGEDNSTAQDTEELEKEIREDLPVNTSKTRPKQEKAFSLKTISTSDPAEVLVKNSQPIKTLPPATSTEPSVILSKSDSDKSSSQVPPILQETDKSKSNTKQNSVPPSQTKSETSWESPKQIKKKKKARRET
In the case of B3, the binding result in experiment [2] is on record as “binds”.

B4: RPN1 (protein, UniProt P04843 24-607)
chain: ASSEAPPLINEDVKRTVDLSSHLAKVTAEVVLAHLGGGSTSRATSFLLALEPELEARLAHLGVQVKGEDEEENNLEVRETKIKGKSGRFFTVKLPVALDPGAKISVIVETVYTHVLHPYPTQITQSEKQFVVFEGNHYFYSPYPTKTQTMRVKLASRNVESYTKLGNPTRSEDLLDYGPFRDVPAYSQDTFKVHYENNSPFLTITSMTRVIEVSHWGNIAVEENVDLKHTGAVLKGPFSRYDYQRQPDSGISSIRSFKTILPAAAQDVYYRDEIGNVSTSHLLILDDSVEMEIRPRFPLFGGWKTHYIVGYNLPSYEYLYNLGDQYALKMRFVDHVFDEQVIDSLTVKIILPEGAKNIEIDSPYEISRAPDELHYTYLDTFGRPVIVAYKKNLVEQHIQDIVVHYTFNKVLMLQEPLLVVAAFYILFFTVIIYVRLDFSITKDPAAEARMKVACITEQVLTLVNKRIGLYRHFDETVNRYKQSRDISTLNSGKKSLETEHKALTSEIALLQSRLKTEGSDLCDRVSEMQKLDAQVKELVLKSAVEAERLVAGKLKKDTYIENEKLISGKRQELVTKIDHILDAL
As for B4, in experiment [2], the binding result is “binds”.

B5: UPF1 (protein, UniProt Q92900 1-1129)
chain: MSVEAYGPSSQTLTFLDTEEAELLGADTQGSEFEFTDFTLPSQTQTPPGGPGGPGGGGAGGPGGAGAGAAAGQLDAQVGPEGILQNGAVDDSVAKTSQLLAELNFEEDEEDTYYTKDLPIHACSYCGIHDPACVVYCNTSKKWFCNGRGNTSGSHIVNHLVRAKCKEVTLHKDGPLGETVLECYNCGCRNVFLLGFIPAKADSVVVLLCRQPCASQSSLKDINWDSSQWQPLIQDRCFLSWLVKIPSEQEQLRARQITAQQINKLEELWKENPSATLEDLEKPGVDEEPQHVLLRYEDAYQYQNIFGPLVKLEADYDKKLKESQTQDNITVRWDLGLNKKRIAYFTLPKTDSGNEDLVIIWLRDMRLMQGDEICLRYKGDLAPLWKGIGHVIKVPDNYGDEIAIELRSSVGAPVEVTHNFQVDFVWKSTSFDRMQSALKTFAVDETSVSGYIYHKLLGHEVEDVIIKCQLPKRFTAQGLPDLNHSQVYAVKTVLQRPLSLIQGPPGTGKTVTSATIVYHLARQGNGPVLVCAPSNIAVDQLTEKIHQTGLKVVRLCAKSREAIDSPVSFLALHNQIRNMDSMPELQKLQQLKDETGELSSADEKRYRALKRTAERELLMNADVICCTCVGAGDPRLAKMQFRSILIDESTQATEPECMVPVVLGAKQLILVGDHCQLGPVVMCKKAAKAGLSQSLFERLVVLGIRPIRLQVQYRMHPALSAFPSNIFYEGSLQNGVTAADRVKKGFDFQWPQPDKPMFFYVTQGQEEIASSGTSYLNRTEAANVEKITTKLLKAGAKPDQIGIITPYEGQRSYLVQYMQFSGSLHTKLYQEVEIASVDAFQGREKDFIILSCVRANEHQGIGFLNDPRRLNVALTRARYGVIIVGNPKALSKQPLWNHLLNYYKEQKVLVEGPLNNLRESLMQFSKPRKLVNTINPGARFMTTAMYDAREAIIPGSVYDRSSQGRPSSMYFQTHDQIGMISAGPSHVAAMNIPIPFNLVMPPMPPPGYFGQANGPAAGRGTPKGKTGRGGRQKNRFGLPGPSQTNLPNSQASQDVASQPFSQGALTQGYISMSQPSQMSQPGLSQPELSQDSYLGDEFKSQIDVALSQDSTYQGERAYQHGGVTGLSQY
With B5, in experiment [2], the binding result is given as “binds”.

B6: PDIA4 (protein, UniProt P13667 21-645)
chain: VAGAEGPDEDSSNRENAIEDEEEEEEEDDDEEEDDLEVKEENGVLVLNDANFDNFVADKDTVLLEFYAPWCGHCKQFAPEYEKIANILKDKDPPIPVAKIDATSASVLASRFDVSGYPTIKILKKGQAVDYEGSRTQEEIVAKVREVSQPDWTPPPEVTLVLTKENFDEVVNDADIILVEFYAPWCGHCKKLAPEYEKAAKELSKRSPPIPLAKVDATAETDLAKRFDVSGYPTLKIFRKGRPYDYNGPREKYGIVDYMIEQSGPPSKEILTLKQVQEFLKDGDDVIIIGVFKGESDPAYQQYQDAANNLREDYKFHHTFSTEIAKFLKVSQGQLVVMQPEKFQSKYEPRSHMMDVQGSTQDSAIKDFVLKYALPLVGHRKVSNDAKRYTRRPLVVVYYSVDFSFDYRAATQFWRSKVLEVAKDFPEYTFAIADEEDYAGEVKDLGLSESGEDVNAAILDESGKKFAMEPEEFDSDTLREFVTAFKKGKLKPVIKSQPVPKNNKGPVKVVVGKTFDSIVMDPKKDVLIEFYAPWCGHCKQLEPVYNSLAKKYKGQKGLVIAKMDATANDVPSDRYKVEGFPTIYFAPSGDKKNPVKFEGGDRDLEHLSKFIEEHATKLSRTKEEL
With B6, the binding entry in experiment [2] is listed as “binds”.

B7: HNRNPL (Heterogeneous nuclear ribonucleoprotein L) (protein, UniProt P14866 1-589)
chain: MSRRLLPRAEKRRRRLEQRQQPDEQRRRSGAMVKMAAAGGGGGGGRYYGGGSEGGRAPKRLKTDNAGDQHGGGGGGGGGAGAAGGGGGGENYDDPHKTPASPVVHIRGLIDGVVEADLVEALQEFGPISYVVVMPKKRQALVEFEDVLGACNAVNYAADNQIYIAGHPAFVNYSTSQKISRPGDSDDSRSVNSVLLFTILNPIYSITTDVLYTICNPCGPVQRIVIFRKNGVQAMVEFDSVQSAQRAKASLNGADIYSGCCTLKIEYAKPTRLNVFKNDQDTWDYTNPNLSGQGDPGSNPNKRQRQPPLLGDHPAEYGGPHGGYHSHYHDEGYGPPPPHYEGRRMGPPVGGHRRGPSRYGPQYGHPPPPPPPPEYGPHADSPVLMVYGLDQSKMNCDRVFNVFCLYGNVEKVKFMKSKPGAAMVEMADGYAVDRAITHLNNNFMFGQKLNVCVSKQPAIMPGQSYGLEDGSCSYKDFSESRNNRFSTPEQAAKNRIQHPSNVLHFFNAPLEVTEENFFEICDELGVKRPSSVKVFSGKSERSSSGLLEWESKSDALETLGFLNHYQMKNPNGPYPYTLKLCFSTAQHAS
Turning to B7, the binding result in experiment [2] was “binds”.

The record behind these values is paper doi:10.1101/2024.10.27.620453.
